Data as given in PubChem BioAssay AID624156 (Broad Institute, 2012).
Among all 46,000 compounds or so, about 900 (2%) were called active. Inconclusive means that the source gave no clear call. Such entries were picked first, then a sample of the others. Rule as the data show it: active = ROS induction above about 79% (passing the limit was not always enough); inconclusive = no clear call, values can overlap the other calls.

Assay: ROS inducers in U2OS cancer cells, primary screen, cell-based, H2DCF-DA fluorescence (AID 624156);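 also: 0% = DMSO vehicle median and 100% = reference compound median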
Details: at 10 µM, hits give high values
In the case of `O=C1O[C@@H](c2ccccc2)[C@@H](c2ccccc2)N2[C@@H](c3ccc(OCCO)cc3)[C@]3(C(=O)Nc4ccc(C#CC5=CCCCC5)cc43)[C@@H](C(=O)O)[C@H]12`, the ROS induction (% of piperlongumine) is reported as active: 159%.
For `C[C@@H]1CN([C@@H](C)CO)C(=O)c2cccc(NC(=O)C3CCCCC3)c2O[C@H]1CN(C)Cc1ccc(Oc2ccccc2)cc1`, the ROS induction (% of piperlongumine) was inconclusive: 79%.
For `Cc1noc(C)c1S(=O)(=O)Nc1ccc2c(c1)C(=O)N([C@H](C)CO)C[C@H](C)[C@H](CN(C)Cc1ccc(Cl)c(Cl)c1)OCCCC[C@@H](C)O2`, the ROS induction (% of piperlongumine) was inconclusive: 100%.
With `COc1ccc(S(=O)(=O)N(C)C[C@H]2Oc3ccc(NS(C)(=O)=O)cc3CC(=O)N([C@H](C)CO)C[C@H]2C)cc1` the ROS induction (% of piperlongumine) was inactive: 9.88%.
With `COc1cc(Cl)c(C)cc1NC(=O)CSC1=C(C#N)C(c2ccccc2F)CC(=O)N1` (stereo unspecified) the ROS induction (% of piperlongumine) was inconclusive: 225%.
In the case of `COc1ccc(-n2cnc3nc(C)c(C(=O)/C=C/N(C)C)c(-c4ccccc4)c32)cc1`, the ROS induction (% of piperlongumine) is reported as inactive: -9.77%.
For `CCOc1ccc([C@H]2[C@@H]3CN(Cc4ccccc4)CC=C3C(C#N)=C(N)C2(C#N)C#N)cc1`, the ROS induction (% of piperlongumine) was inactive: 48%.
In the case of `COc1ccc(C)cc1N(CC(=O)N1CCN(c2cc(Cl)ccc2C)CC1)S(C)(=O)=O`, the ROS induction (% of piperlongumine) is reported as inconclusive: 82.9%.
For `Clc1ccccc1/C=N/c1c(-c2ccco2)nc2ccccn12`, the ROS induction (% of piperlongumine) was inconclusive: 106%.
With `C[C@@H]1CN([C@H](C)CO)C(=O)Cc2cc(NC(=O)Cc3cn(C)c4ccccc34)ccc2O[C@@H]1CN(C)Cc1ccccc1` the ROS induction (% of piperlongumine) was inconclusive: 75.2%.
For `Cc1ccc(-n2cc(-c3ccccc3)c3c(=O)[nH]cnc32)cc1`, the ROS induction (% of piperlongumine) was inconclusive: 78.2%.
In the case of `CCc1nc(N2CCCCC2)c(C#N)c2c1CCCC2`, the ROS induction (% of piperlongumine) is reported as inactive: -1.31%.
For `C[C@@H]1CN([C@H](C)CO)C(=O)Cc2cc(NS(=O)(=O)c3cccs3)ccc2O[C@H]1CN(C)Cc1ccc(C(F)(F)F)cc1`, the ROS induction (% of piperlongumine) was inconclusive: 75.6%.
With `COc1ccc(NC(=O)Nc2ccc3c(c2)C(=O)N([C@@H](C)CO)C[C@H](C)[C@H](CN(C)C(=O)Nc2ccc(C(F)(F)F)cc2)O3)cc1` the ROS induction (% of piperlongumine) was inconclusive: 110%.
With `COc1ccc(CNc2cc(-c3nn4c(C)nnc4s3)ccc2C)cc1OC` the ROS induction (% of piperlongumine) was inactive: 12.9%.
In the case of `CN(C)S(=O)(=O)c1ccc2c(c1)/C(=C/c1cc3c([nH]1)CCCC3)C(=O)N2`, the ROS induction (% of piperlongumine) is reported as active: 98.2%.
For `O=C(NCc1ccc2c(c1)CCO2)c1ccc2nsnc2c1`, the ROS induction (% of piperlongumine) was inactive: -13.9%.
In the case of `C[C@H]1CN([C@@H](C)CO)C(=O)c2cccc(NS(C)(=O)=O)c2O[C@@H]1CN(C)S(=O)(=O)c1cccs1`, the ROS induction (% of piperlongumine) is reported as inactive: -5.56%.
With `CC(O)CNc1nc2c(c(=O)n(Cc3ccccc3F)c(=O)n2C)n1C` (stereo unspecified) the ROS induction (% of piperlongumine) was inconclusive: 149%.
For `COc1ccc(C)cc1NC(=O)CSc1nnc(-c2ccc(C(C)(C)C)cc2)n1C`, the ROS induction (% of piperlongumine) was active: 93.1%.
For `C[C@@H]1CN([C@H](C)CO)C(=O)Cc2cc(NS(=O)(=O)c3ccccc3)ccc2O[C@H]1CN(C)C(=O)Nc1cccc2ccccc12`, the ROS induction (% of piperlongumine) was active: 97.6%.
For `CC1=CC(C)(C)N(Cc2ccccc2)c2ccccc21`, the ROS induction (% of piperlongumine) was inconclusive: 82.9%.
In the case of `Cc1cc(C(=O)Nc2cccc3c2O[C@H](CN(C)CC2CCCCC2)[C@H](C)CN([C@@H](C)CO)C3=O)n(C)n1`, the ROS induction (% of piperlongumine) is reported as inactive: -4.87%.
In the case of `COc1cccc(CN(C)C[C@@H]2OCc3cnnn3CCCC(=O)N([C@@H](C)CO)C[C@H]2C)c1`, the ROS induction (% of piperlongumine) is reported as inconclusive: 91.5%.
With `CCC(Sc1nc2c(sc3ccccc32)c(=O)n1CCc1ccccc1)C(=O)N1CCOCC1` (stereo unspecified) the ROS induction (% of piperlongumine) was inconclusive: 94.3%.
With `C[C@@H]1CCCCO[C@H](CN(C)CC2CCCCC2)[C@@H](C)CN([C@H](C)CO)C(=O)c2cc(NS(=O)(=O)c3ccc(F)cc3)ccc2O1` the ROS induction (% of piperlongumine) was active: 97.8%.
In the case of `O=C(/C=C/c1ccc2c(c1)OCO2)Nc1ccc(-n2nncc2-c2ccccc2)cc1`, the ROS induction (% of piperlongumine) is reported as inconclusive: 99.3%.
For `O=C1C(=O)N(CCCn2ccnc2)C(c2cccs2)C1C(=O)c1cc2ccccc2o1` (stereo unspecified), the ROS induction (% of piperlongumine) was inconclusive: 547%.
For `C[C@@H]1CCCCO[C@H](CN(C)S(=O)(=O)c2ccccc2)[C@@H](C)CN([C@H](C)CO)C(=O)c2cc(NC(=O)Nc3ccc(F)cc3)ccc2O1`, the ROS induction (% of piperlongumine) was inconclusive: 79.1%.
For `CC(=O)Nc1ccc(Nc2ncnc3c2cnn3Cc2ccc(Cl)cc2)cc1`, the ROS induction (% of piperlongumine) was inconclusive: 275%.
In the case of `CO[C@H]1C[C@@H]2CC[C@@H](C)[C@@](O)(O2)C(=O)C(=O)N2CCCC[C@H]2C(=O)O[C@H](C(C)CC2CC[C@@H](O)[C@H](OC)C2)CC(=O)[C@H](C)/C=C(\C)[C@@H](O)[C@@H](OC)C(=O)[C@H](C)C[C@H](C)/C=C/C=C/C=C\1C` (stereo partly specified), the ROS induction (% of piperlongumine) is reported as inconclusive: 86.3%.
For `C[C@H](CO)N1C[C@H](C)[C@H](CN(C)S(=O)(=O)c2ccc(F)cc2)Oc2ncc(C#Cc3ccc(F)cc3)cc2C1=O`, the ROS induction (% of piperlongumine) was inconclusive: 80.4%.
For `C[C@@H]1CCCCO[C@@H](CN(C)C(=O)Nc2cccc3ccccc23)[C@@H](C)CN([C@H](C)CO)C(=O)c2cc(NS(=O)(=O)c3ccc(Cl)cc3)ccc2O1`, the ROS induction (% of piperlongumine) was active: 107%.
In the case of `C[C@H]1CN([C@@H](C)CO)C(=O)Cc2cc(NC(=O)CCCN(C)C)ccc2O[C@H]1CN(C)Cc1ccc(Oc2ccccc2)cc1`, the ROS induction (% of piperlongumine) is reported as inconclusive: 82.6%.
For `CS(=O)(=O)N(CC(=O)Nc1ccc2ccccc2c1)c1cccc2ccccc12`, the ROS induction (% of piperlongumine) was inconclusive: 82.7%.
In the case of `C[C@H](CO)N1C[C@H](C)[C@@H](CN(C)C(=O)NC2CCCCC2)Oc2ccc(NC(=O)Nc3ccc4c(c3)OCO4)cc2C1=O`, the ROS induction (% of piperlongumine) is reported as inconclusive: 149%.
For `CCC(Sc1ccc2nnc(-c3ccccc3)n2n1)C(=O)OC` (stereo unspecified), the ROS induction (% of piperlongumine) was inconclusive: 99.7%.
In the case of `c1ccc(-c2nnc(-c3cccc4ccccc34)o2)cc1`, the ROS induction (% of piperlongumine) is reported as inconclusive: 81.8%.
For `C[C@H]1CN([C@@H](C)CO)C(=O)c2cccc(NC(=O)Nc3ccccc3)c2O[C@@H]1CN(C)Cc1ccc(C(F)(F)F)cc1`, the ROS induction (% of piperlongumine) was inactive: 46.4%.
With `C[C@H]1CN([C@@H](C)CO)C(=O)Cc2cc(NC(=O)c3ccncc3)ccc2O[C@H]1CN(C)C(=O)Nc1cccc2ccccc12` the ROS induction (% of piperlongumine) was inconclusive: 75.8%.
For `NS(=O)(=O)c1ccc(CCNc2ncnc3c2c(-c2ccccc2)cn3-c2ccc(F)cc2)cc1`, the ROS induction (% of piperlongumine) was inconclusive: 75.6%.
With `C[C@@H]1CN([C@@H](C)CO)C(=O)c2cc(NC(=O)Cc3cn(C)c4ccccc34)ccc2O[C@@H]1CN(C)Cc1ccccc1` the ROS induction (% of piperlongumine) was inactive: 13.4%.
In the case of `COC(=O)COc1cccc(NC(=O)c2ccc(NC(=O)c3ccco3)cc2)c1`, the ROS induction (% of piperlongumine) is reported as inconclusive: 76.1%.
In the case of `CCOC(=O)N1CCC(n2c(SCc3ccc(F)cc3Cl)nc3ccsc3c2=O)CC1`, the ROS induction (% of piperlongumine) is reported as inconclusive: 82.9%.
In the case of `Cc1ccc(S(=O)(=O)c2no[n+]([O-])c2S(=O)(=O)c2ccc(C)cc2)cc1`, the ROS induction (% of piperlongumine) is reported as inconclusive: 82.2%.
In the case of `COC(=O)c1c(-c2ccc(Br)cc2)csc1NC(=O)C1CCCCC1C(=O)O` (stereo unspecified), the ROS induction (% of piperlongumine) is reported as inactive: 55.9%.
With `Cc1ccc(NC(=O)CSc2nnc(C)n3c2cc2sccc23)cc1F` the ROS induction (% of piperlongumine) was inconclusive: 80.9%.
For `Cc1ccnc(SCC(=O)Nc2oc(-c3ccccc3)c(-c3ccccc3)c2C#N)n1`, the ROS induction (% of piperlongumine) was inconclusive: 79.2%.
With `C[C@@H]1CN([C@@H](C)CO)C(=O)c2cc(NS(=O)(=O)c3ccc(Cl)cc3)ccc2O[C@@H]1CN(C)Cc1ccc(C(=O)O)cc1` the ROS induction (% of piperlongumine) was inconclusive: 148%.
For `Cc1ccc(CN2C(=O)CSc3ccc(C(=O)NCC4CCCO4)cc32)cc1` (stereo unspecified), the ROS induction (% of piperlongumine) was inactive: -1.67%.
With `COC(=O)CCCCCCC(=O)N/N=C/c1cc(OC)c(OC)cc1[N+](=O)[O-]` the ROS induction (% of piperlongumine) was active: 119%.
With `CN(CC(=O)Nc1ccccc1F)S(=O)(=O)c1ccc2ccccc2c1` the ROS induction (% of piperlongumine) was inactive: -6%.
With `CCn1c(C)nc2cc(S(=O)(=O)N3CCOCC3)ccc21` the ROS induction (% of piperlongumine) was inactive: -9.86%.
In the case of `C[C@@H]1CN([C@H](C)CO)C(=O)c2cccc(NC(=O)C3CCOCC3)c2O[C@H]1CN(C)Cc1ccc(C(F)(F)F)cc1`, the ROS induction (% of piperlongumine) is reported as inactive: 18.4%.
For `C[C@H]1CN([C@@H](C)CO)C(=O)c2cc(N(C)C)ccc2O[C@@H]1CN(C)Cc1ccc(-c2ccccc2)cc1`, the ROS induction (% of piperlongumine) was active: 206%.
With `COc1ccc(-c2nc3cc(C(C)C)ccc3o2)cc1NC(=O)COc1ccccc1C` the ROS induction (% of piperlongumine) was inactive: -3.17%.
For `C[C@@H]1CN([C@H](C)CO)C(=O)c2cc(N(C)C)ccc2O[C@H]1CN(C)Cc1ccc2c(c1)OCO2`, the ROS induction (% of piperlongumine) was inconclusive: 81.7%.
For `COc1ccc(OC)c(NC(=O)CSc2nnc(-c3ccccc3)n2-c2ccccc2)c1`, the ROS induction (% of piperlongumine) was inconclusive: 106%.
In the case of `CCOC(=O)CSc1nnc(-c2ccccc2)n1-c1cccc(C)c1`, the ROS induction (% of piperlongumine) is reported as inconclusive: 83.4%.
In the case of `CCn1c(SCC(=O)Nc2ccc(Br)cc2Cl)nnc1-c1ccccc1`, the ROS induction (% of piperlongumine) is reported as inactive: -9.82%.
With `Cc1ccc(-c2nn3c(C)nnc3c3ccccc23)cc1S(=O)(=O)NCC1CCCO1` (stereo unspecified) the ROS induction (% of piperlongumine) was inconclusive: 75.9%.
With `C[C@@H]1CN([C@H](C)CO)C(=O)c2cccc(N(C)C)c2O[C@@H]1CN(C)C(=O)Nc1ccc(C(F)(F)F)cc1` the ROS induction (% of piperlongumine) was inactive: -6%.
With `Cc1ccc(-n2c(SCC(=O)C(C)(C)C)nnc2-c2ccncc2)cc1` the ROS induction (% of piperlongumine) was inactive: -6.24%.
With `Cc1ccc(S(=O)(=O)Nc2cccc3c2O[C@@H](CN(C)S(=O)(=O)c2ccc(F)cc2)[C@H](C)CN([C@H](C)CO)C3=O)cc1` the ROS induction (% of piperlongumine) was inconclusive: 412%.
With `CC1(C)CC(=O)C2=C(C1)Nc1ccccc1N(C(=O)C(F)(F)F)C2c1ccc(Cl)cc1Cl` (stereo unspecified) the ROS induction (% of piperlongumine) was inactive: 10%.
In the case of `C[C@@H]1CCCCO[C@H](CN(C)Cc2ccc(C(F)(F)F)cc2)[C@@H](C)CN([C@H](C)CO)C(=O)c2cc(NC(=O)Nc3ccccc3)ccc2O1`, the ROS induction (% of piperlongumine) is reported as active: 137%.
